Measurements reported in patent CN115850497A.
No constants are given. Whether binding was seen depends on the method and setting. Some entries that bind do so weakly or less than the wild type.

By UniProt entry, the sequences of proteins in these tests, tags left out. Where a name states a change or a piece, a line headed by the entry shows the natural chain unless it says otherwise. Chains listed by the source or under a name are the forms on record and can include a tag or linker. Residues count along the entry.
纯化后的YKL-40蛋白 (Western blot sample) (P36222, residues 22-383): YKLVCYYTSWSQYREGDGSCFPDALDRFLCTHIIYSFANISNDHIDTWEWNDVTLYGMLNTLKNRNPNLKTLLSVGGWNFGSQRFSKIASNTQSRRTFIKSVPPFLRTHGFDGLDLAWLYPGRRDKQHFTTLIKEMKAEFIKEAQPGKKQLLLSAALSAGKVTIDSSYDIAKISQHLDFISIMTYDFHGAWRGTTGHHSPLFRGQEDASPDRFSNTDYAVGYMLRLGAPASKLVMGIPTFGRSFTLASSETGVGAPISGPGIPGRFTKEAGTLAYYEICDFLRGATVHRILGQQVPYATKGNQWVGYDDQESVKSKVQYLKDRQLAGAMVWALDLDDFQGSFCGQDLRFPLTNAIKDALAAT
Q YKL-40-347-364-6his (YKL-40 construct lacking residues 347-364) (P36222, form named): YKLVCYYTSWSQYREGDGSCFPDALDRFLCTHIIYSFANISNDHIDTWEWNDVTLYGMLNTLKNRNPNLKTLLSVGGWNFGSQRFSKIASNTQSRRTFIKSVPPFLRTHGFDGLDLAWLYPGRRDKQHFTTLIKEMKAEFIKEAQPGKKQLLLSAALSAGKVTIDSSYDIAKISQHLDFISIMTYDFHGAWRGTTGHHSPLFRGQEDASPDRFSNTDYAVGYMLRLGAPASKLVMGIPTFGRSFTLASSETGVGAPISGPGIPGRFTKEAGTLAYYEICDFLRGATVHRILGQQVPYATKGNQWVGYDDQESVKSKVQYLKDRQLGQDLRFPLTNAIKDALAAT
Q YKL-40-311-328-6his (YKL-40 construct lacking residues 311-328) (P36222, form named): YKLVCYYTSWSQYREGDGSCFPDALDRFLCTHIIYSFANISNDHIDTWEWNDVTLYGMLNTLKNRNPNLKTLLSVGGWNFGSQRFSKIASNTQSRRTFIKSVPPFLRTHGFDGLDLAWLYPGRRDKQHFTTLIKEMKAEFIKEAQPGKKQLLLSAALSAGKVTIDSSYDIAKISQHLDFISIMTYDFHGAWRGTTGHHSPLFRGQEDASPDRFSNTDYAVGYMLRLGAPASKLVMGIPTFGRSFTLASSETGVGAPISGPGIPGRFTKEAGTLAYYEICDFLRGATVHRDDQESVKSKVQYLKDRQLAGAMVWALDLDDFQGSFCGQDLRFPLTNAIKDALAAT
Q YKL-40-329-346-6his (YKL-40 construct lacking residues 329-346) (P36222, form named): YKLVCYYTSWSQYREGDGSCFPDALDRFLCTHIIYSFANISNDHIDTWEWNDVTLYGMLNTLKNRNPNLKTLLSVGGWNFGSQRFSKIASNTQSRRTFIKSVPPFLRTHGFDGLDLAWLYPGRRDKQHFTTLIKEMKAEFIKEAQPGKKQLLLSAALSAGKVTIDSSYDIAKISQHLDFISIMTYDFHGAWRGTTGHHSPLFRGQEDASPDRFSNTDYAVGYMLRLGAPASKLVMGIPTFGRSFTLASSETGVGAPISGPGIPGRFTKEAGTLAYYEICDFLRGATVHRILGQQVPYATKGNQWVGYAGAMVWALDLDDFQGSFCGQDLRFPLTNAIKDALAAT

Experiments:
[1] = molecular target: 纯化后的YKL-40蛋白 (Western blot sample) (human) (UniProt P36222); test: Western blot of purified YKL-40 after SDS-PAGE
[2] = molecular target: Q YKL-40-347-364-6his (YKL-40 construct lacking residues 347-364) (human) (UniProt P36222); test: immunofluorescence on 293T cells transfected with deletion constructs
[3] = molecular target: Q YKL-40-311-328-6his (YKL-40 construct lacking residues 311-328) (human) (UniProt P36222); test: as above
[4] = molecular target: Q YKL-40-329-346-6his (YKL-40 construct lacking residues 329-346) (human) (UniProt P36222); test: as above

- binding [1]: binds
- binding [2]: binds
- binding [3]: binds
- binding [4]: binds
B1: 重组单克隆抗体10F1 (expressed from 10F1m2a + 10F1mk in 293T cells) (antibody, V domains shown)
VH: EVQLQESGPSLVKPSQTLSLSCSVTGDSITSGYWNWIRKFPGNKLEYMGFISYSGNTYYNPSLKSRISITRDTSKNQYFLQLNSVTTEDTATYYCVRKGDYDGAWFAYWGQGTLVTVSA
VL: DIQMTQSPASLSASVGETVTITCRASGNIHNYLAWYQQKQGKSPQLLVYNAKTLADGVPSRFSGSGSGTQYSLKINSLQPEDFGSYYCQHFWSTPLTFGAGTKLELK
